The test deals with Thioredoxin (control) [thioredoxin: P0AA25]. Put plainly: pull-down; thioredoxin-SGTA fusion proteins or thioredoxin covalently coupled to UltraLink Biosupport beads, incubated with rabbit reticulocyte lysate for 16 hours at 4°C; washed in 40mM HEPES-KOH pH 7.5, 40mM potassium acetate, 5mM MgCl2; Western blot; only the target purified.

These are yes or no findings as the source states them, for the method shown. In cells and extracts the contact can be indirect.

B1: UBL4A (ubiquitin-like protein 4A) of rabbit reticulocyte lysate (protein, UniProt B7NZQ9 1-157)
chain: MQLTVKALQGRECNLQVPEDEQVSTLKQLVSEKLNVPVRQQRLLFKGKALADGKRLSDYSIGPNSKLNLVVKPLEKVLLAEGTARRLADSPPPPVWHLISKVLARHFSAADASRVLEQLQRDYERSLSRLTLDDIERLASRFLHPEGTEAMEKGLSK
Regarding B1, the binding result is “no binding”.

For the origin of these results see paper PMC9328565.
